## Screening data, single-dose tests

The chains behind the UniProt entries cited, without tags or fusion partners. Residues count along the entry.
UniProt P9WNZ1, whole entry: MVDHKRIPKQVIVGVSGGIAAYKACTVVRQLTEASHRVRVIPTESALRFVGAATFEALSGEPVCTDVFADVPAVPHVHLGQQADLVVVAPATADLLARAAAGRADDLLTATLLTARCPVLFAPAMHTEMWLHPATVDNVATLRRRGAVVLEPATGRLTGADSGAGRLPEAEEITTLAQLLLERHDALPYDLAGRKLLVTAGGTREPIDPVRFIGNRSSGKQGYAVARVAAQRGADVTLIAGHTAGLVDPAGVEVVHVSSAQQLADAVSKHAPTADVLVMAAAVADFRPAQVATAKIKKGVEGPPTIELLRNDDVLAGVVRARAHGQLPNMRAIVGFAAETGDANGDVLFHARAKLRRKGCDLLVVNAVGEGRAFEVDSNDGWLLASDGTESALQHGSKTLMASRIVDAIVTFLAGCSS
UniProt Q8IDJ8, 1-583: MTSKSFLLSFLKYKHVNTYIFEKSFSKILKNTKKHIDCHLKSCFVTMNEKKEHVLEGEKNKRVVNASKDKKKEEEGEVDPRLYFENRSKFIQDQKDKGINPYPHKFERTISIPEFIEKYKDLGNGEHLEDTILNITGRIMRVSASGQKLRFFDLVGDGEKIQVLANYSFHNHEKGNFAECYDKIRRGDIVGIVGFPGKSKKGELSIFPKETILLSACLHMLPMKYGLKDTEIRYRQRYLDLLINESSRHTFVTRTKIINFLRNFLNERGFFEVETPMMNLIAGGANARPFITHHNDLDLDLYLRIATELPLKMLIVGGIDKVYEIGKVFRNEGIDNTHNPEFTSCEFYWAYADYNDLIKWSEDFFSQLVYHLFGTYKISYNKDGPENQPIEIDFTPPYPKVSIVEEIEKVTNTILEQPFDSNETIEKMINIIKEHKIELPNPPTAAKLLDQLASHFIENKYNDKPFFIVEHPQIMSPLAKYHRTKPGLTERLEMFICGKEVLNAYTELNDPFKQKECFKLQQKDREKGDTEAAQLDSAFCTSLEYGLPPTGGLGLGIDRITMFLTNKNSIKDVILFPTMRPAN
UniProt A4I591, 1-473: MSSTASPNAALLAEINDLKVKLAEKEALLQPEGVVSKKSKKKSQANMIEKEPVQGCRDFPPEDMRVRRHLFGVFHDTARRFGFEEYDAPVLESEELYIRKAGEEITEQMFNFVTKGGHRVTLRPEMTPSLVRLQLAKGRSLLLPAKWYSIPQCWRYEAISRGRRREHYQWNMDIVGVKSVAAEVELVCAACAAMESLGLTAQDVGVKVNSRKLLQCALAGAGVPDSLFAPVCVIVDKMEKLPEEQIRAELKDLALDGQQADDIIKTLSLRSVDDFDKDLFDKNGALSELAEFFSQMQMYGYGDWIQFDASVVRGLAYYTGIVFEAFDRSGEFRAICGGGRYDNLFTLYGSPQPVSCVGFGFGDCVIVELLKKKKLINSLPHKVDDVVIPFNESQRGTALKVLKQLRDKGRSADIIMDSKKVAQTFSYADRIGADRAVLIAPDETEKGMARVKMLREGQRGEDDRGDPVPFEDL

Measurements from “University of Dundee, Small-Polar-MMV Screening Library” (2021), ChEMBL document CHEMBL3988442.

Each number is a percent effect as filed. The controls that fix the scale are not given in the record; negative values are as filed. Compounds were drawn at random from those tested, without regard to their results.

A: 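Enzyme assay of CoaBC with a phosphate dye (Biomol Green) read at 650 nm. Target: Coenzyme A biosynthesis protein CoaBC, Mycobacterium tuberculosis (UniProt P9WNZ1). Concentration: 30 µM. Direction is inferred from only a few compounds that gave an IC50; most scored high, so higher reads as stronger inhibition. Most strong results did not repeat in a second test. About 67,000 compounds were tested under these conditions; 0.06% (about 40) showed 50% or more at least once.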
B: 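Enzyme assay of the cytosolic lysyl-tRNA synthetase in 384-well plates, read by luminescence. Target: Lysine-tRNA ligase, Plasmodium falciparum 3D7 (UniProt Q8IDJ8). Concentration: 30 µM. Higher reads as stronger inhibition, judged from the few compounds that gave an IC50. Size under these conditions: about 69,000 compounds, about 49 of them at 50% or above in at least one test.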
C: 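Enzyme assay of histidyl-tRNA synthetase; the read-out is not stated. Target: Histidine-tRNA ligase, Leishmania infantum (UniProt A4I591). Compounds at 30 µM. The record gives no direction; compounds that gave an IC50 in retests scored well above the rest, so higher reads as stronger inhibition. The assay is labelled LdHisRS but filed under L. infantum. Size under these conditions: about 69,000 compounds, about 410 of them at 50% or above in at least one test.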

SMILES: CC(=O)Nc1nc(CN2CCn3c(C)nnc3C2)cs1
A: 1.405
B: -1.074
C: 2.679

SMILES: Cc1cc(C(=O)N2CCC(NC(=O)c3cccnc3)CC2)c(C)o1
A: -5.645
B: 2.469
C: 14.04

SMILES: O=C(NCc1ccccc1CN1CCC(O)CC1)Nc1ccccn1
A: -0.978
B: 2.676
C: 12.9

SMILES: Cc1nc(COC[C@H]2CC[C@H]3[C@H](CCN3C(N)=O)O2)cs1
A: 4.315
B: 3.228
C: 14.71

SMILES: CNc1nc(CNC(=O)Nc2ccccc2OC(C)C)cs1
A: 7.025
B: 4.583
C: 14.67

SMILES: CNC(=O)[C@@H]1C[C@H]2CN(C(=O)c3ccco3)C[C@H]2N1C(C)C
A: -16.65
B: -0.2595
C: 9.722

SMILES: Cc1cccc(C(C)CNS(=O)(=O)CCCC#N)c1 (centres undefined)
A: 5.95
B: -3.995
C: 7.042

SMILES: CSc1nnc(CC2CCN(C(=O)CCc3cccnc3)CC2)n1C
A: 3.6
B: 5.876
C: 5.128

SMILES: CCN1CC2(CC1=O)CN(C(=O)NC(C)C)CCN(C(=O)C(C)C)C2 (centres undefined)
A: 4.242
B: 3.15
C: 7.692

SMILES: CC(C)CN1CCC(c2nc3ccc(NC(C)C)cn3n2)CC1
A: 4.261
B: 5.485
C: 20.51

SMILES: COc1cccc(F)c1-c1c[nH]c(C)n1
A: -0.1272
B: -2.821
C: 19.51

SMILES: COC(=O)Cn1c(=O)nc2n1C(=O)N(c1ccc(Cl)cc1)C2
A: -10.53
B: -1.78
C: -1.905

SMILES: CCNC(=O)CN1CCN(c2cc(C)nc(-c3ccncc3)n2)CC1
A: -0.1318
B: 9.398
C: 30.14

SMILES: COc1ccc(-c2c[nH]c(C3CC(=O)N(CC(C)C)C3)n2)cc1 (centres undefined)
A: 4.132
B: 2.817
C: 8

SMILES: CC(C)n1ncc2c1NC(=O)CC21C(=O)Nc2c(Cl)cccc21 (centres undefined)
A: 0.6729
B: 1.504
C: 5.825

SMILES: CC(=O)N1CCN(CCOc2ccc(F)cc2)CC(C(N)=O)C1 (centres undefined)
A: 0.618
B: 1.413
C: 2.069

SMILES: Cc1cc(CN2C[C@@H]3COC[C@]3(CNC(=O)c3ccsc3)C2)no1
A: -3.782
B: 1.878
C: 5.455

SMILES: Cn1c(C2CC2)nc2c1CCN(Cc1nc(Cc3ccccc3)no1)C2
A: -1.434
B: 0.6482
C: 16.67

SMILES: CN(CCNS(C)(=O)=O)C(=O)c1ccc(Cl)c(Cl)c1
A: 5.2
B: 3.798
C: 15.38

For reference, 2 entries once more:

- CC(C)CN1CCC(c2nc3ccc(NC(C)C)cn3n2)CC1 : A: 4.261%; B: 5.485%; C: 20.51%
- COC(=O)Cn1c(=O)nc2n1C(=O)N(c1ccc(Cl)cc1)C2 : A: -10.53%; B: -1.78%; C: -1.905%